# Assay: general procedure: Fmoc solid-phase peptide synthesis; Sieber Amide Resin (Watanabe Chemical Industries, Ltd., 0.48 mmol/g); DIPCI/Oxyma Pure
# Conditions: whole synthesis, UV 225 nm, scale of the general procedure 0.48 mmol/g, 0.26 g resin, thioether ring, sequence written open
substance,measurement,value
Ala-Val-MePhe-Val-Trp-Asn-Tyr-Tyr-Ile-Ile-K(MePEG4c)-Arg-Phe-MeTyr-Cys,final purity (method not given),92.3%

# — patent publication US20260116920A1 (PEPTIDREAM INC., priority 2021, published 2026)
